PubChem BioAssay AID652243 – Drosophila RNAi Screening Center | 2013
Aim: 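Knock-downs that decrease or increase androgen receptor reporter signal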 (primary screen). System: Drosophila S2R+ cells. Reagent: long dsRNA against Drosophila genes. Timing: 72 h (48 h, then 24 h hormone). Conditions: synthetic androgen R1881 at 10 nM for 24 h. Detection: 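Per-well raw luminescence of the androgen-driven firefly reporter and of the Renilla control, two replicates each, without normalisation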. Direction: firefly reporter light: higher = more light from androgen-responsive reporter; Renilla control light: higher = more constitutive control signal (cell number, transfection). Active means: 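Across duplicate plates, a knock-down whose log firefly/Renilla ratio shifted a set fold down or up from the GFP/LacZ control mean was a hit; the downward cut appears as both 1.5 and 3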. Meaning of the calls: active = hit: reporter lowered or raised; inactive = no hit.
The deposit covers about 24,000 reagents; shown is a random part of those that have a named target and a result. Of all reagents, 246 (1%) got an active call. 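Plates not normalised; calls are printed but the firefly/Renilla ratio behind them is not deposited; fold cut for lowering reported inconsistently.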 Raw values are not corrected between plates. Unmarked entries are inactive. The numbers tell different reagents against one gene apart. Not given: the amount of reagent.

no.	gene	reagent	firefly reporter light, replicate 1	firefly reporter light, replicate 2	Renilla control light, replicate 1	Renilla control light, replicate 2
1	CG16959	1	7.22e5	6.49e5	1.10e6	1.21e6
2	app (approximated)	1	52061	62972	1.38e5	1.43e5
3	app (approximated)	2	1.38e5	1.29e5	2.08e6	1.82e6
4	app (approximated)	3	2.07e5	2.05e5	2.44e6	2.23e6
5	app (approximated)	4	6.54e5	9.94e5	7.36e5	8.31e5
6	Dtd (D-aminoacyl-tRNA deacylase)	1	1.04e5	1.56e5	1.56e6	2.31e6
7	Gr92a (Gustatory receptor 92a)	1	1.24e6	9.35e5	2.44e6	1.82e6
8	RpL32 (Ribosomal protein L32)	1	51313	66452	8.57e5	1.23e6
9	RpL32 (Ribosomal protein L32)	2	1.52e5	1.55e5	3.89e5	4.17e5
10	qkr58E-1 (quaking related 58E-1)	1	7.22e5	5.66e5	7.50e5	9.40e5
11	qkr58E-1 (quaking related 58E-1)	2	4.50e5	3.57e5	5.02e5	5.75e5
12	CG32313	1	9.15e5	8.22e5	1.63e6	1.37e6
13	CG13950	1	71298	1.17e5	8.17e5	1.02e6
14	CG13950	2	2.15e5	3.32e5	5.86e5	5.76e5
15	MtnB (Metallothionein B)	1	8.38e5	6.16e5	1.98e6	1.53e6
16	MtnB (Metallothionein B)	2	5.17e5	6.28e5	1.20e6	1.15e6
17	osi (orsai)	1	3.80e5	3.52e5	1.99e6	1.75e6
18	Crg-1 (Circadianly Regulated Gene)	1	6.80e5	1.07e6	8.99e5	1.28e6
19	Crg-1 (Circadianly Regulated Gene)	2	1.02e6	9.47e5	1.20e6	9.16e5
20	Rad60	1	1.41e5	2.19e5	2.28e6	2.56e6
21	CG15629	1	1.57e5	86000	6.80e5	5.99e5
22	CG15629	2	4.53e5	3.78e5	8.68e5	8.68e5
23	RpL37-2 (Ribosomal protein L37-2)	1	2.55e5	2.68e5	1.96e6	1.72e6
24	eIF4A (eukaryotic translation initiation factor 4A)	1	1.12e5	88421	6.67e5	3.67e5
25	eIF4A (eukaryotic translation initiation factor 4A)	2	2.14e5	2.20e5	2.34e5	2.28e5
26	CG2680	1	1.86e5	3.21e5	2.78e6	2.81e6
27	Ntl (Neurotransmitter transporter-like)	1	3.16e5	3.08e5	3.16e6	3.30e6
28	Ntl (Neurotransmitter transporter-like)	2	5.20e5	3.75e5	2.08e6	1.38e6
29	CG10845	1	1.63e5	1.70e5	1.78e6	2.15e6
30	CG32032	1	1.27e5	1.77e5	3.32e5	3.06e5
31	sns (sticks and stones)	1	4.13e5	3.16e5	2.00e6	1.65e6
32	sns (sticks and stones)	2	2.85e5	3.57e5	2.43e6	3.63e6
33	sns (sticks and stones)	3	3.97e5	3.75e5	2.45e6	1.94e6
34	sns (sticks and stones)	4	3.45e5	2.51e5	2.17e6	1.50e6
35	EndoA (Endophilin A)	1	63643	49232	3.95e5	3.69e5
36	EndoA (Endophilin A)	2	2.95e5	3.81e5	8.48e5	8.48e5
37	Hn (Henna)	1	8.42e5	7.91e5	2.02e6	1.67e6
38	AcCoAS (Acetyl Coenzyme A synthase)	1	7.13e5	5.70e5	3.27e6	2.46e6
39	AcCoAS (Acetyl Coenzyme A synthase)	2	83036	80643	6.64e5	6.11e5
40	AcCoAS (Acetyl Coenzyme A synthase)	3	4.24e5	7.29e5	6.24e5	1.09e6
41	AcCoAS (Acetyl Coenzyme A synthase)	4	4.00e5	2.71e5	6.77e5	5.57e5
42	CG12817	1	61686	87460	1.80e6	2.01e6
43	Rpe (Ribulose-5-phosphate-3-epimerase)	1	8.76e5	8.06e5	1.94e6	1.91e6
44	CG30289	1	1.38e5	2.11e5	5.24e5	5.81e5
45	KaiR1D (Kainate-type ionotropic glutamate receptor subunit 1D)	1	1.88e5	3.15e5	3.79e6	3.94e6
46	ApepP (Aminopeptidase P)	1	8.39e5	1.13e6	1.26e6	1.31e6
47	CG43052	1	2.12e5	2.63e5	2.85e6	2.88e6
48	CG9021	1	7.68e5	7.59e5	1.02e6	8.11e5
49	CG30413	1	65045	1.17e5	1.32e5	1.32e5
50	CG30413	2	3.38e5	3.51e5	6.87e5	6.87e5
51	CG16820	1	1.04e6	1.37e6	2.76e6	2.47e6
52	CG14229	1	21589	20349	1.66e5	1.40e5
53	CG14229	2	6.60e5	8.70e5	1.47e6	1.70e6
54	CG11425	1	3.08e5	1.84e5	2.14e6	1.90e6
55	CG11425	2	2.83e5	5.56e5	8.54e5	1.32e6
56	Cluap1 (Clusterin associated protein 1)	1	6.07e5	6.20e5	1.55e6	1.30e6
57	Cluap1 (Clusterin associated protein 1)	2	7.01e5	5.06e5	7.58e5	6.82e5
58	glob1 (globin 1)	1	1.33e5	1.72e5	8.16e5	1.03e6

Just “firefly reporter light, replicate 2”, for 8 of the entries above:
sns (sticks and stones) #2 = 3.57e5
sns (sticks and stones) #3 = 3.75e5
sns (sticks and stones) #4 = 2.51e5
EndoA (Endophilin A) #1 = 49232
EndoA (Endophilin A) #2 = 3.81e5
Hn (Henna) = 7.91e5
AcCoAS (Acetyl Coenzyme A synthase) #1 = 5.70e5
AcCoAS (Acetyl Coenzyme A synthase) #2 = 80643
